The record followed here is US7371742B2, “Porphyrin derivatives for photodynamic therapy” (Institut Curie, priority 2001, dated 2008).

Where only a bound is given, the exact number is not on record here.

For data set [1], the system named is human colic adenocarcinoma cell line HT29. Description: HT29 cell survival (MTT assay) after 24 h incubation, with or without light irradiation. Particulars: IC50 with light/IC50 without light. A general note: Tetrazolium dyes change colour on reduction, which living cells bring about.
Data set [2] deals with RBY-79 (indifferently named Y-79) cells. Description: RBY-79 (Y79) cell cytotoxicity / photocytotoxicity. Particulars: IC50 with light/IC50 without light.

For `Oc1cccc(-c2c3nc(c(-c4cccc(O)c4)c4ccc([nH]4)c(-c4cccc(O)c4)c4nc(c(-c5cccc(O)c5)c5ccc2[nH]5)CC4)C=C3)c1` [m-THPC, reference compound], in data set [1], the “IEff. Efficiency Index, HT 29” value is recorded as “IEff < 0.08”. In addition, in data set [2], the “IEff. Efficiency Index, Y79” value is on record as “IEff < 0.06”.
On to `OC[C@H]1O[C@H](SCCOCCOc2ccc(-c3c4nc(c(-c5ccc(OCCOCCS[C@H]6O[C@H](CO)[C@@H](O)[C@H](O)[C@@H]6O)cc5)c5ccc([nH]5)c(-c5ccc(OCCOCCS[C@H]6O[C@H](CO)[C@@H](O)[C@H](O)[C@@H]6O)cc5)c5nc(c(-c6ccccc6)c6ccc3[nH]6)C=C5)C=C4)cc2)[C@@H](O)[C@@H](O)[C@@H]1O` [Compound 68, TPP(p-O-DEG-S-α-Mann)3], for which the “IEff. Efficiency Index, HT 29” value in data set [1] is “IEff < 0.2”.
Regarding “5,10,15-tri(para-O-diethyleneglycoloxyphenyl)-20-phenylporphyrin [Compound 75]”, the “IEff. Efficiency Index, HT 29” value in data set [1] was “IEff = 0.66”. Besides, in data set [2], the “IEff. Efficiency Index, Y79” value was “IEff = 0.27”.
In the same order, the values of `OC[C@H]1O[C@H](Sc2c(F)c(F)c(-c3c4nc(c(-c5c(F)c(F)c(S[C@H]6O[C@H](CO)[C@@H](O)[C@H](O)[C@@H]6O)c(F)c5F)c5ccc([nH]5)c(-c5c(F)c(F)c(S[C@H]6O[C@H](CO)[C@@H](O)[C@H](O)[C@@H]6O)c(F)c5F)c5nc(c(-c6c(F)c(F)c(S[C@H]7O[C@H](CO)[C@@H](O)[C@H](O)[C@@H]7O)c(F)c6F)c6ccc3[nH]6)C=C5)C=C4)c(F)c2F)[C@@H](O)[C@@H](O)[C@@H]1O` [Compound 29, TPP F4(p-S-α-MannOH)4] are “IEff < 0.24” and “IEff < 0.33”.
Regarding `O[C@@H]1[C@@H](O)[C@H](SCc2ccc(-c3c4nc(c(-c5ccc(CS[C@@H]6OC[C@@H](O)[C@H](O)[C@H]6O)cc5)c5ccc([nH]5)c(-c5ccc(CS[C@@H]6OC[C@@H](O)[C@H](O)[C@H]6O)cc5)c5nc(c(-c6ccc(CS[C@@H]7OC[C@@H](O)[C@H](O)[C@H]7O)cc6)c6ccc3[nH]6)C=C5)C=C4)cc2)OC[C@H]1O` [Compound 64, TPP(p-CH2-S-β-XylOH)4], the “IEff. Efficiency Index, HT 29” value in data set [1] is listed as “IEff < 0.45”.
Consider TPP(p-OC3-S-α-MannOH)3 [Compound 24], for which the “IEff. Efficiency Index, HT 29” value in data set [1] is “IEff = 1”. The “IEff. Efficiency Index, Y79” value in data set [2] is given as “IEff = 0.62”.
Regarding `OC[C@H]1O[C@H](SCCOCCOCCOc2ccc(-c3c4nc(c(-c5ccc(OCCOCCOCCS[C@H]6O[C@H](CO)[C@@H](O)[C@H](O)[C@@H]6O)cc5)c5ccc([nH]5)c(-c5ccc(OCCOCCOCCS[C@H]6O[C@H](CO)[C@@H](O)[C@H](O)[C@@H]6O)cc5)c5nc(c(-c6ccccc6)c6ccc3[nH]6)C=C5)C=C4)cc2)[C@@H](O)[C@@H](O)[C@@H]1O` [Compound 74, 5,10,15-tri(para-10-S-α-D-thiomanosyloxy-O-triethylene glycoloxyphenyl)-20-phenylporphyrin], in data set [1], the “IEff. Efficiency Index, HT 29” value is given as “IEff = 0.46”. Besides, the “IEff. Efficiency Index, Y79” value in data set [2] was “IEff = 0.05”; in data set [2] (listed as TPP(p-O-TEG-S-α-MannOH)3), < 0,03.
With `OC[C@H]1O[C@@H](Sc2c(F)c(F)c(-c3c4nc(c(-c5c(F)c(F)c(S[C@@H]6O[C@H](CO)[C@@H](O)[C@H](O)[C@H]6O)c(F)c5F)c5ccc([nH]5)c(-c5c(F)c(F)c(S[C@@H]6O[C@H](CO)[C@@H](O)[C@H](O)[C@H]6O)c(F)c5F)c5nc(c(-c6c(F)c(F)c(S[C@@H]7O[C@H](CO)[C@@H](O)[C@H](O)[C@H]7O)c(F)c6F)c6ccc3[nH]6)C=C5)C=C4)c(F)c2F)[C@H](O)[C@@H](O)[C@@H]1O` [Compound 25, TPP F4(p-S-β-GluOH)4], the “IEff. Efficiency Index, Y79” value in data set [2] was “IEff < 0.4”.
For TPP F4(p-S-β-GluOH)3 [Compound 26], in data set [1], the “IEff. Efficiency Index, HT 29” value is “IEff = 0.26”. Further, the “IEff. Efficiency Index, Y79” value in data set [2] was “IEff < 0.22”.
Turning to `OC[C@H]1O[C@@H](Oc2ccc(-c3c4nc(c(-c5ccc(O[C@@H]6O[C@H](CO)[C@@H](O)[C@H](O)[C@H]6O)cc5)c5ccc([nH]5)c(-c5ccc(O[C@@H]6O[C@H](CO)[C@@H](O)[C@H](O)[C@H]6O)cc5)c5nc(c(-c6ccc(O[C@@H]7O[C@H](CO)[C@@H](O)[C@H](O)[C@H]7O)cc6)c6ccc3[nH]6)C=C5)C=C4)cc2)[C@H](O)[C@@H](O)[C@@H]1O` [TPP(p-O-β-GluOH)4, reference compound], in data set [2], the “IEff. Efficiency Index, Y79” value was “IEff = 0.74”.
Turning to “5,10,15-Tri(3-O-β-D-glucosylphenyl)-2,3-chlorin and 5,10,15-tri(3-O-β-D-glucosylphenyl)-7,8-chlorin [Compound 55]”, the “IEff. Efficiency Index, HT 29” value in data set [1] was “IEff < 0.38”. In addition, the “IEff. Efficiency Index, Y79” value in data set [2] is reported as “IEff = 0.46”.
Turning to “porfimer sodium [Photofrin ®, reference compound]”, the “IEff. Efficiency Index, HT 29” value in data set [1] was “IEff. = <0.5”. In addition, the “IEff. Efficiency Index, Y79” value in data set [2] was “IEff = 0.67”.
Turning to `O[C@@H]1[C@@H](O)[C@H](Sc2c(F)c(F)c(-c3c4nc(c(-c5c(F)c(F)c(S[C@@H]6OC[C@@H](O)[C@H](O)[C@H]6O)c(F)c5F)c5ccc([nH]5)c(-c5c(F)c(F)c(S[C@@H]6OC[C@@H](O)[C@H](O)[C@H]6O)c(F)c5F)c5nc(c(-c6c(F)c(F)c(F)c(F)c6F)c6ccc3[nH]6)C=C5)C=C4)c(F)c2F)OC[C@H]1O` [Compound 28, TPP F4(p-S-β-XylOH)3], the “IEff. Efficiency Index, HT 29” value in data set [1] was “IEff < 0.26”.
With TPC(m-O-β-GluOH)4 [Compound 54], the “IEff. Efficiency Index, HT 29” value in data set [1] was “IEff < 0.3”. The “IEff. Efficiency Index, Y79” value in data set [2] is listed as “IEff = 0.77”.
Regarding `O[C@@H]1[C@@H](O)[C@H](Sc2c(F)c(F)c(-c3c4nc(c(-c5c(F)c(F)c(S[C@@H]6OC[C@@H](O)[C@H](O)[C@H]6O)c(F)c5F)c5ccc([nH]5)c(-c5c(F)c(F)c(S[C@@H]6OC[C@@H](O)[C@H](O)[C@H]6O)c(F)c5F)c5nc(c(-c6c(F)c(F)c(S[C@@H]7OC[C@@H](O)[C@H](O)[C@H]7O)c(F)c6F)c6ccc3[nH]6)C=C5)C=C4)c(F)c2F)OC[C@H]1O` [Compound 27, TPP F4(p-S-β-XylOH)4], the “IEff. Efficiency Index, HT 29” value in data set [1] was “IEff < 0.5”.
With `OC[C@H]1O[C@@H](Oc2ccc(-c3c4nc(c(-c5ccc(O[C@@H]6O[C@H](CO)[C@@H](O)[C@H](O)[C@H]6O)cc5)c5ccc([nH]5)c(-c5ccc(O[C@@H]6O[C@H](CO)[C@@H](O)[C@H](O)[C@H]6O)cc5)c5nc(c(-c6ccccc6)c6ccc3[nH]6)C=C5)C=C4)cc2)[C@H](O)[C@@H](O)[C@@H]1O` [TPP(p-O-β-GluOH)3, reference compound], the “IEff. Efficiency Index, HT 29” value in data set [1] is “IEff < 0.1 =”. The “IEff. Efficiency Index, Y79” value in data set [2] was “IEff < 0.06”.
In the same order, the values of `OC[C@H]1O[C@H](SCc2ccc(-c3c4nc(c(-c5ccc(CS[C@H]6O[C@H](CO)[C@@H](O)[C@H](O)[C@@H]6O)cc5)c5ccc([nH]5)c(-c5ccc(CS[C@H]6O[C@H](CO)[C@@H](O)[C@H](O)[C@@H]6O)cc5)c5nc(c(-c6ccc(CS[C@H]7O[C@H](CO)[C@@H](O)[C@H](O)[C@@H]7O)cc6)c6ccc3[nH]6)C=C5)C=C4)cc2)[C@@H](O)[C@@H](O)[C@@H]1O` [Compound 66, TPP(p-CH2-S-α-MannOH)4] are “IEff = 0.5” and “IEff = 0.54”.
Regarding TPP(p-OC3-S-β-GluOH)3 [Compound 23], the “IEff. Efficiency Index, HT 29” value in data set [1] is “IEff = 0.85”. Besides, the “IEff. Efficiency Index, Y79” value in data set [2] is “IEff < 0.65”.
As for `OC[C@H]1O[C@@H](SCc2ccc(-c3c4nc(c(-c5ccc(CS[C@@H]6O[C@H](CO)[C@@H](O)[C@H](O)[C@H]6O)cc5)c5ccc([nH]5)c(-c5ccc(CS[C@@H]6O[C@H](CO)[C@@H](O)[C@H](O)[C@H]6O)cc5)c5nc(c(-c6ccc(CS[C@@H]7O[C@H](CO)[C@@H](O)[C@H](O)[C@H]7O)cc6)c6ccc3[nH]6)C=C5)C=C4)cc2)[C@H](O)[C@@H](O)[C@@H]1O` [Compound 65, TPP(p-CH2-S-β-GluOH)4], the “IEff. Efficiency Index, HT 29” value in data set [1] is recorded as “IEff < 0.52”.
As to `Oc1ccc(-c2c3nc(c(-c4ccc(O)cc4)c4ccc([nH]4)c(-c4ccc(O)cc4)c4nc(c(-c5ccc(O)cc5)c5ccc2[nH]5)C=C4)C=C3)cc1` [TPP(p-OH)4, reference compound], the “IEff. Efficiency Index, HT 29” value in data set [1] is “IEff. = 0.11”. Besides, in data set [2], the “IEff. Efficiency Index, Y79” value is “IEff = 0.06”.
In the case of `Oc1ccc(-c2c3nc(c(-c4ccc(O)cc4)c4ccc([nH]4)c(-c4ccc(O)cc4)c4nc(c(-c5ccccc5)c5ccc2[nH]5)C=C4)C=C3)cc1` [TPP(p-OH)3, reference compound], in data set [1], the “IEff. Efficiency Index, HT 29” value is on record as “IEff < 0.1”. In addition, the “IEff. Efficiency Index, Y79” value in data set [2] is on record as “IEff < 0.1”.
